Primary screen of a compound library

Amino acid sequences for entries named in this document (tags omitted).
UniProt E9BF75, entry or part of it: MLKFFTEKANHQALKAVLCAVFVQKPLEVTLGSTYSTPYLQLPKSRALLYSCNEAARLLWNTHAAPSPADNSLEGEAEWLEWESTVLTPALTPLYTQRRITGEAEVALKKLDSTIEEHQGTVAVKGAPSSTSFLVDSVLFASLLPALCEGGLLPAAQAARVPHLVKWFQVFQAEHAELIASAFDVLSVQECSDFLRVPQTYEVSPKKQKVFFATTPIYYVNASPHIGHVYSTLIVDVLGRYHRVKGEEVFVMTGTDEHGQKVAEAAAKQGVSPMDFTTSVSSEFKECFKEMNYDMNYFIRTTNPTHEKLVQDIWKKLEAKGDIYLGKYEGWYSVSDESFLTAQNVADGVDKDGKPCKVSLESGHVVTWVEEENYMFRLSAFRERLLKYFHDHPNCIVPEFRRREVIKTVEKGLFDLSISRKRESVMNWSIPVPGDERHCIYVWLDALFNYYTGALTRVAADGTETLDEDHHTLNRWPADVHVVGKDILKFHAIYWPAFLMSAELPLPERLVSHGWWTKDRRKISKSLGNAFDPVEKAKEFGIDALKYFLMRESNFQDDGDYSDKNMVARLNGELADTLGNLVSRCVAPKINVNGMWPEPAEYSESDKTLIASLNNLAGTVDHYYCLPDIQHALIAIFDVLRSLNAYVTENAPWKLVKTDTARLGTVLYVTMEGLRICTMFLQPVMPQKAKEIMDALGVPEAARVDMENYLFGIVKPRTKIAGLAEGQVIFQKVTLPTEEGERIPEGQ

Measurements from “University of Dundee, Small-Polar-MMV Screening Library” (2021), ChEMBL document CHEMBL3988442.

A: 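Assay on Mycobacterium tuberculosis, filed only as a heat shock assay from Cornell; the read-out is not stated. The concentration is filed as 10 mM, unlikely as a test dose, so the dose is not known. The record gives no direction; compounds that gave an IC50 in retests scored well above the rest, so higher reads as stronger inhibition. Of about 69,000 compounds tested this way, about 930 (1.4%) reached 50% or more in at least one test.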
B: 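Methionyl-tRNA synthetase (putative), Leishmania donovani (UniProt E9BF75). Primary screen of methionyl-tRNA synthetase; the read-out is not stated. The test concentration is not given. Values are per cent inhibition. Size under these conditions: about 68,000 compounds, about 24 of them at 50% or above in at least one test.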
C: 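Whole-cell assay for inhibitors of Mycobacterium tuberculosis growth, labelled Cornell in the record; the read-out is not stated. The concentration is filed as 10 mM, unlikely as a test dose, so the dose is not known. Higher means stronger inhibition (inferred from two other growth screens of the library). Size under these conditions: about 53,000 compounds, about 900 of them at 50% or above in at least one test.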

All values are in %.
How 0% and 100% were set is not recorded. Most values in the screen are low, and negative values occur.
This is an unselected part of the compounds tested.
A dash means the value is not listed here; it may have been measured.

Compound	A	B	C
CCCc1cnc(C)nc1N1CCC(Cc2ccc(CO)cc2)C1 (configuration not stated)	19.76%	26.18%	35.23%
NC(=O)CSc1ccccc1NCc1nc(C2CC2)no1	27.54%	8.591%	-
[H][C@@]12CS(=O)(=O)C[C@]1([H])N(C(=O)c1ccnn1CCC)CCN2C(=O)C1CC1	-12.04%	-	-14.88%
c1ccc(CN2Cc3ccnn3CC(COCc3cccnc3)C2)nc1 (configuration not stated)	-13.71%	9.966%	-4.158%
CCOc1ccccc1CSc1nnc(CC2CCS(=O)(=O)C2)n1C (configuration not stated)	-0.1925%	13.01%	-10.94%
CC(CCc1ccccc1)NC(=O)CNCCCN1CCOCC1.O=C(O)C(=O)O (configuration not stated)	-14.08%	-	-
Cc1nnsc1CN1C[C@@H]2CC[C@H](C1)N(Cc1c(C)noc1C)C2=O	-	15.36%	-
CCc1cc(C(=O)N2CCC3(CCCN(CCOC)C3=O)C2)cs1 (configuration not stated)	-6.915%	8.219%	2.378%
CC(C)C(NC(=O)NCc1cccnc1N(C)C)c1cccs1 (configuration not stated)	-24.07%	16.72%	-16.48%
Cc1ccc(S(=O)(=O)Cc2noc([C@@H]3C[C@@H](O)CN3C(C)C)n2)cc1	6.246%	-0.5495%	-
Fc1cnc(N2CCCn3c(nnc3Cn3ccnc3)C2)nc1	-	19.93%	-
Fc1ccccc1C(CNc1ccncn1)N1CCCC1 (configuration not stated)	-9.26%	8.065%	20.44%
COc1cccc([C@@]2(O)CC[C@@H]3CN(C(=O)c4cn(C)nc4C)C[C@@H]32)c1	-	13.44%	-
CN1C(=O)CC(C(=O)O)C12CCN(Cc1cc(Cl)ccc1F)CC2 (configuration not stated)	-24.14%	0.6849%	-9.826%
CCn1c(CN(C)Cc2cnc(C)s2)nc2c(F)cccc21	-32.12%	16.67%	21.09%
CC(C)Nc1n[nH]c2nc(C3CCN(C(=O)c4ccccn4)C3)ccc12 (configuration not stated)	-3.899%	-0.3175%	-34.83%
Cc1cc(N2CCOC(CN)C2)nc(-c2ccccc2)n1 (configuration not stated)	-4.889%	26.8%	-10.4%
O=C(O)C(F)(F)F.[H][C@@]12COC[C@]1([H])[C@H](NC(=O)C1CCC1)CN2Cc1csc(C)n1	11.68%	-	9.734%
O=C(O)C(F)(F)F.[H][C@@]12OCCN(Cc3ccc(F)cc3)[C@@]1([H])CC[C@@H]2OC	-25.62%	-	-19.53%
CC(=O)N1CCCC(c2ccc3sc(N)nc3n2)C1 (configuration not stated)	-3.796%	12.43%	-7.852%
COc1nc2c(cc1C(=O)N1CCCCC1c1ccccn1)CCC2 (configuration not stated)	11.07%	16.82%	20.47%
Cc1ccc(S(=O)(=O)NCC(C)(C)N)c(F)c1.Cl	-3.389%	-	4.022%
Cc1ccc2[nH]c(C3CCN(C)CC3)nc2c1	-4.444%	1.596%	-32.27%
COC(=O)c1ccc(Cl)c(S(=O)(=O)Nc2ccc(F)c(C(N)=O)c2)c1	-4.428%	3.495%	16.62%
O=C(c1ccc2c(c1)[nH]c(=O)n2C1CCCC1)N1CCSCC1	32.75%	11.72%	-19.61%
CCS(=O)(=O)CC(=O)N1CCCC(c2noc(C(C)C)n2)C1 (configuration not stated)	5.397%	10.6%	6.821%
CCc1nc2n(n1)CC(NCc1cnn(Cc3ccccc3)c1)CC2 (configuration not stated)	-15.18%	23.5%	-
O=C(O)C(F)(F)F.O=C(O)C(F)(F)F.[H][C@@]12CN(Cc3ccncc3)C[C@H](C(=O)N3CCCCO3)[C@]1([H])CCO2	-45.75%	-	4.581%
Cn1ccc(NC(=O)Cc2ccccc2F)n1	-12.51%	7.551%	-2.791%
CSc1nccc(N2C[C@@H](CN3CCCCC3)[C@@H](CO)C2)n1	-26.79%	13.84%	-
COC(=O)c1cccn1C1CCN(Cc2cccnc2)CC1	-20.66%	22.95%	-
Cc1ccc(F)c(S(=O)(=O)Nc2cn(C)cc(Br)c2=O)c1	11.7%	-6.091%	-
CCS(=O)(=O)CC(=O)NC(c1ccccc1)C1CCCCC1 (configuration not stated)	-15.5%	16.9%	5.869%
Cc1ccc(Nc2nccc(C3CCN(CC(N)=O)C3)n2)nc1 (configuration not stated)	-3.947%	14.15%	-17.99%
COc1c(C2CCCN2C(=O)c2ccco2)c(C)nn1C (configuration not stated)	-2.396%	9.03%	4.05%
CCc1c(C)nn(CCNC(=O)c2cc(C3CC3)n[nH]2)c1C	12.07%	8.933%	-3.598%
CNC(=O)N1C[C@H]2C[C@H](C(=O)Nc3cccnc3)[C@@H](C1)O2	-	8.955%	-
Cc1nc(C)c(C(=O)N2CCc3nc4sc(C)cc4c(=O)n3CC2)o1	6.215%	16.18%	-20.33%
O=C(c1ccco1)N1CCO[C@@H]2CN(c3ccccc3)CC[C@@H]2C1	-	14.43%	-
Cc1cccc2c1nc(CCO)n2-c1ccc(N)nc1	9.262%	11.76%	14.3%
[H][C@@]12CS(=O)(=O)C[C@]1([H])N(Cc1ccc(OCC)cc1)CCN2CCOC	14.9%	-	-
Cc1ccc(=O)n(CC(=O)N(C)Cc2csc(-c3cccs3)n2)n1	-1.951%	12.32%	20.67%
O=C(O)C(F)(F)F.O=C(O)C(F)(F)F.[H][C@@]12COC[C@]1([H])[C@@H](OCCN(C)C)CN2Cc1cccc(C#N)c1	7.388%	-	28.72%
O=C(NCCN1CCCCCC1)c1coc(COc2ccc(F)cc2)n1	19.97%	7.116%	14.33%
COc1ccccc1C(=O)N1CCCC1c1ncc2c(n1)CCNC2.Cl (configuration not stated)	-17.31%	-	-
CCOc1ccnc(NCc2nc(C)cc(C(F)(F)F)n2)n1	-14.49%	7.258%	6.93%
CCCn1nccc1C(=O)N1CCN(C(=O)C2CC2)[C@@H]2CS(=O)(=O)C[C@@H]21	-	0%	-
Cc1cc(CN2CCCN(c3ccc(C#N)cc3)CC2)no1	9.24%	15.26%	17.49%
O=C(O)C(F)(F)F.[H][C@@]12CCN(C3CCOC3)[C@]1([H])CCC(=O)N2Cc1csc(C)n1 (some centres not stated)	-32.28%	-	9.813%
Cc1ccc(F)c(S(=O)(=O)NCc2cccc(C(=O)N3CCCC3)c2)c1	-55.28%	9.836%	-
Cc1cc(=O)n(CC(=O)NCC2CCCO2)c(-c2ccccc2)n1 (configuration not stated)	-30.02%	6.203%	11.87%
Cc1nn(CCO)cc1CN1CCCC1c1nc2c(C)cccc2[nH]1 (configuration not stated)	7.11%	3.373%	7.964%
Cc1nnn2c1COC(CNC(=O)c1cccn1C)C2 (configuration not stated)	8.687%	11.11%	-1.719%
[H][C@@]12COC[C@]1(c1nc(C)no1)CN(C(=O)N1CCCC1)C2	28.09%	-	-37.5%
CCOc1cccc(NS(=O)(=O)c2cc(C)c(C(=O)O)s2)c1	-9.444%	3.346%	-19.97%
CC(NC(=O)N1CCc2sccc2C1)c1nncn1C (configuration not stated)	-24.07%	11.87%	-12.29%
O=C(CC1COCCN1)NCCc1noc(-c2ccccc2)n1 (configuration not stated)	-36.01%	4.658%	-
O=C(NCCc1ccccn1)[C@@H]1CC[C@@H]2[C@@H](CCN2Cc2ccoc2)O1	-	12.18%	-
O=C(O)C1CC2(CCN(c3nccc4ccccc34)CC2)CN1 (configuration not stated)	7.941%	9.207%	-35.08%
CCSc1cncc(N2CCC(C(=O)NC(C)C(C)C)CC2)n1 (configuration not stated)	23.08%	2.419%	-
Cc1nnc(N2CC[C@H]3C[C@H](C(=O)N4CCOCC4)O[C@H]3C2)s1	-	9.764%	-
Cc1nc(O)ccc1C(=O)N1CCCC1c1nc(-c2ccccc2)n[nH]1 (configuration not stated)	-2.892%	21.53%	-65.42%
CCOC1CCN(C(=O)CN(C)c2cnccn2)CC1	-12.3%	15.56%	-
Cc1cc(NC(=O)C(C)N2CCN(c3ccc(C#N)cc3F)CC2)no1 (configuration not stated)	-6.585%	9.296%	2.498%
COC[C@@H]1CC[C@H]2[C@H](CCN2S(=O)(=O)c2cccc(F)c2)O1	-	6.25%	-